Laboratory results reported in PubChem BioAssay AID1671190 (National Center for Advancing Translational Sciences (NCATS), 2021).
Several values for one entry are separate records, joined by “and”; a condition that tells them apart may be missing. Equal entries are not always repeated. The campaign covered roughly 580,000 compounds. About 6,100 (1.1%) were called active. Inconclusive results, whose numbers are uncertain, are shown with a selection of clear calls. Calls follow the shape of the dose curve; as a rule, active = well fitted inhibition curve with a large enough effect; inconclusive = small, poorly fitted or top-dose-only effect, or another doubt; inactive = no such curve, though single readings can be large or run the other way. Potencies of inconclusive entries are doubtful fits and often do not repeat.

Protein sequences, listed by entry. Tags and fused reporters are not part of them.
UniProt P18054, whole entry, looked up: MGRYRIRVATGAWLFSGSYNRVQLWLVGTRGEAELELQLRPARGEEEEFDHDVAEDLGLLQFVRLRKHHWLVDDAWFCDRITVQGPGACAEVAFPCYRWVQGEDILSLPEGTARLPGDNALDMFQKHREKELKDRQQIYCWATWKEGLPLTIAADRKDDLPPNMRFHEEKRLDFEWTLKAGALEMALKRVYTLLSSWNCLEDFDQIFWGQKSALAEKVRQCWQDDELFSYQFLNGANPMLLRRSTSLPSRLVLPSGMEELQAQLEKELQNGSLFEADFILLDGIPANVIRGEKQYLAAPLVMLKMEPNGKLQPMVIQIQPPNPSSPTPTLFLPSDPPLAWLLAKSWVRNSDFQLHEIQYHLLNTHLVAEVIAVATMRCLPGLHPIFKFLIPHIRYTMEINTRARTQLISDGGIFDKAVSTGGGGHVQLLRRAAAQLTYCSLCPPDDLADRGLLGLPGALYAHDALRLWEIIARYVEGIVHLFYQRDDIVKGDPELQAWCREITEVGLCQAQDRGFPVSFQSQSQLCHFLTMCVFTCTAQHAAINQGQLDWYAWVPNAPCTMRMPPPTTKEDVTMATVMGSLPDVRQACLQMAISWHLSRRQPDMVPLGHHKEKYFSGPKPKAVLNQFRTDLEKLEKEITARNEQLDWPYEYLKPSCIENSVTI

These compounds were tested against Polyunsaturated fatty acid lipoxygenase ALOX12 (Homo sapiens) (UniProt P18054) (assay: Primary qHTS assay for inhibitors of human arachidonate 12S-lipoxygenase (ALOX12): Round 2). Conditions: purified 12hLO, xylenol orange hydroperoxide absorbance; series mostly up to 108 µM.
Summary of the method: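 Purified human 12hLO at 150 nM in 25 mM Hepes, 0.01% Triton X-100, pH 7.0, preincubated 15 min at room temperature with compound. Reaction started with 40 uM arachidonic acid, 30 min at room temperature. Hydroperoxide measured by Fe-xylenol orange, 573/405 nm absorbance ratio.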
Potency is read from the fitted curve at half-maximal effect.

Structure (SMILES) | Potency
CC(C)(C)c1ccc(CC(=O)N2CCC2(C)C(=O)Nc2cccc3ccccc23)cc1 (stereo not drawn) | inactive
O=C(c1cc(F)cc(F)c1)N1CCC(Oc2ncccc2C(=O)N2CCCCC2)C1 (stereo not drawn) | inconclusive: 89.1 µM [inhibitor, partial curve, poor fit]
COc1ccc(NC(=O)NCCCN2CCN(c3ccccc3F)CC2)cc1 | inactive
Cc1cccc(-c2noc([C@@H]3C[C@@H](O)CN3C3CCOCC3)n2)c1 | inconclusive: 10 µM [inhibitor, full curve, poor fit]
CCc1ccc2c(CN(C)CCOc3ccccc3C)cc(=O)oc2c1 | inconclusive: 56.2 µM [inhibitor, single point]
Cc1ccc(-c2c(CN3CCN(c4cccc(C)c4C)CC3)csc2C)cc1 | inconclusive: 50.1 µM [inhibitor, partial curve, poor fit]
O=[N+]([O-])c1ccc(-c2c(-c3ccccc3)ncc3ccc(F)cc23)cc1 | inconclusive: 79.4 µM [inhibitor, single point]
O=[N+]([O-])c1ccc(O)c(-c2nc(-c3ccccc3)c(-c3cccs3)[nH]2)c1 | inactive
CN(C)c1ccc(-c2sc(Nc3ccccc3)n[n+]2-c2ccc(F)cc2)cc1 | active: 44.7 µM
CCn1nc(C(=O)OCC(=O)Nc2cc(C)on2)c2ccccc2c1=O | inconclusive: 0.282 µM [inhibitor, full curve, poor fit]
COC(=O)N/N=C(\C)c1ccc(-n2ccnc2)cc1 | inconclusive: 112 µM [inhibitor, partial curve, poor fit]
CCOC(=O)C1Nc2ccc(Br)cc2C2C=CCC12 (stereo not drawn) | inconclusive: 44.7 µM [inhibitor, partial curve, poor fit]
CCOc1ccc(NC(=O)CN(C)C(=O)c2c(C)nn(-c3ccc(F)cc3)c2Cl)cc1OCC | inconclusive: 2.51 µM [inhibitor, full curve, poor fit]
O=C1c2ccccc2NC(c2cccc(Cl)c2)N1c1ccc(N2CCOCC2)cc1 (stereo not drawn) | inactive
O=C(COc1ccc(F)cc1)Nc1ccc(OCc2cc(=O)n3ccsc3n2)cc1 | inactive
Cc1nc2ccccc2c(C)c1CC(=O)N(Cc1ccco1)Cc1ccco1 | inconclusive: 35.5 µM [inhibitor, partial curve]
COc1ccc(-c2nc3cnccn3c2NC2CCCC2)cc1 | inconclusive: 112 µM [inhibitor, single point]
Cc1cccc(C)c1-n1nnnc1S(=O)(=O)Cc1ccccc1Cl | inactive
O=C(Nc1ccccc1)N1CCSCC1 | inconclusive: 141 µM [inhibitor, single point]
O=C(O)c1ccccc1-c1ccc(/C=C2\SC(=O)N(c3ccccc3)C2=O)o1 | inconclusive: 79.4 µM [inhibitor, partial curve, poor fit]
O=c1[nH]c2ccc(NCc3ccc(F)cc3)cc2[nH]1 | inactive
CC1CCCc2c1nc1sc3c(c1c2-c1ccc(Cl)cc1)CCC3 (stereo not drawn) | inconclusive: 44.7 µM [inhibitor, partial curve, poor fit]
O=[N+]([O-])c1ccccc1S(=O)(=O)N(CC1CO1)c1ccccc1 (stereo not drawn) | inconclusive: 50.1 µM [inhibitor, partial curve, poor fit]

Structure (SMILES) | Potency
O=S(=O)(O)c1ccc(SCc2ccccc2)nc1 | inconclusive: 35.5 µM [inhibitor, single point]
CCN1CCC2(CC1)N=C(SCC(=O)Nc1ccc(F)cc1F)C(c1ccccc1)=N2 | inconclusive: 112 µM [inhibitor, partial curve, poor fit]
CCCc1cnc2c(c1SCC(=O)Nc1ccc([N+](=O)[O-])cc1)c(=O)n(C)c(=O)n2C | inconclusive: 100 µM [inhibitor, partial curve, poor fit]
CCCCNc1c(-c2ccc(SC(C)CC)c(OC)c2)nc2ccc(Cl)cn12 (stereo not drawn) | inconclusive: 39.8 µM [inhibitor, partial curve, poor fit]
COc1ccc(/C=C(/NC(=O)c2cccc([N+](=O)[O-])c2)C(=O)O)cc1 | inconclusive: 56.2 µM [inhibitor, single point]
Cc1c(-c2ccccc2F)[nH]c2ccc(CNS(=O)(=O)C3CC3)cc12 | inconclusive: 44.7 µM [inhibitor, partial curve, poor fit]
CC1CCCCN1C(=S)NC(=O)c1ccco1 (stereo not drawn) | inconclusive: 44.7 µM [inhibitor, partial curve, poor fit]
Cc1ccc(S(=O)(=O)N2CCC(C(=O)OCC(=O)NCc3ccco3)CC2)cc1C | inactive
CCCC(C(=O)NCc1ccco1)N(C(=O)CNS(=O)(=O)c1ccc(Cl)cc1)C1CCCC1 (stereo not drawn) | inconclusive: 112 µM [inhibitor, partial curve, poor fit]
Cc1ccc(C(C)C)c(OCC(=O)Nc2ccc(S(=O)(=O)Nc3nccs3)cc2)c1 | inactive
O=C(CSc1ncnc2ccccc12)c1cccs1 | inactive
Cc1ccc([N+](=O)[O-])cc1Nc1nc(N2CCCC2)nc(N2CCCC2)n1 | inactive
CN(Cc1cnccn1)C(=O)CC1C(=O)NCCN1Cc1c(F)cccc1Cl (stereo not drawn) | inconclusive: 112 µM [inhibitor, single point]
Fc1ccc(-c2ccc3ncc(Nc4cc(F)cc(N5CCOCC5)c4)n3n2)cc1 | inactive
N#Cc1cc2nc(O)c(O)nc2cc1[N+](=O)[O-] | inconclusive: 7.08 µM [inhibitor, full curve, poor fit] and inconclusive: 44.7 µM [inhibitor, partial curve, poor fit]
OCC(CCc1c[nH]c2ccccc12)c1c[nH]c2ccccc12 (stereo not drawn) | inconclusive: 89.1 µM [inhibitor, single point]
CN(C)C(N)=NCCC[C@H](N)C(=O)O | inconclusive: 22.4 µM [inhibitor, partial curve, poor fit] and inconclusive: 14.1 µM [inhibitor, full curve]
C[C@@H]1[C@@H](c2ccccc2)Nc2ccc(Br)cc2[C@H]1NC(=O)OCc1ccccc1 | inconclusive: 63.1 µM [inhibitor, partial curve, poor fit]
COc1ccc(CC(=O)Nc2c(C(=O)N3CCC(N4CCCCC4)CC3)oc3ccccc23)cc1 | inactive
Fc1ccc(-c2nnc3sc(Cn4cccn4)nn23)cc1Br | inconclusive: 141 µM [inhibitor, single point]
CNC(=O)c1ccc2c(c1)C1(CCN(CC3CC3)C1)CN2Cc1ccccc1 (stereo not drawn) | inactive
COc1ccccc1Cn1cc(C(=O)c2ccccc2)c(=O)c2cc(OC)c(OC)cc21 | inactive
Cc1cc(C)c(C#N)c(SCSCc2ccccc2)n1 | inactive

Structure (SMILES) | Potency
Cc1cc(-c2ccc(C)c(S(=O)(=O)NCCCN3CCN(c4ccccc4F)CC3)c2)on1 | inactive
Cc1ccc(CNC(=O)N2CCC(c3noc(-c4ccccc4)n3)C2)cc1 (stereo not drawn) | inactive
O=c1[nH][nH]c(C(F)(F)F)c1C=Nc1ccccc1Cl | inconclusive: 15.8 µM [inhibitor, partial curve, poor fit]
CCc1ccc(NC(=S)NC2CCN(Cc3ccccc3)CC2)cc1 | inconclusive: 50.1 µM [inhibitor, single point]
COc1cc([N+](=O)[O-])ccc1NC(=O)Oc1ccc(NC(C)=O)cc1 | inconclusive: 28.2 µM [inhibitor, partial curve]
O=C(CSc1cccc2cccc(Cl)c12)NCc1ccco1 | inconclusive: 79.4 µM [inhibitor, partial curve, poor fit]
COC(=O)c1cc(NC(=S)N2CCN(C(=O)C3CCCO3)CC2)cc(C(=O)OC)c1 (stereo not drawn) | inactive
Cc1ccc2c(CC(=O)Nc3nc(C)cs3)coc2c1 | inconclusive: 15.8 µM [inhibitor, full curve, poor fit]
Cc1cc(C)n2nc(-c3ccc(Cl)cc3)cc2n1 | inactive
COc1ccc(-c2cc3ccccc3s2)cc1[C@H]1[C@H]2C=CC[C@@H](C)[C@@H]2C(=O)N1Cc1ccccc1 | inconclusive: 35.5 µM [inhibitor, partial curve]
NC(=O)c1cc(Cc2ccccc2)sc1NC(=O)c1ccco1 | inconclusive: 39.8 µM [inhibitor, partial curve, poor fit] and inconclusive: 35.5 µM [inhibitor, partial curve, poor fit]
c1ccc(Cn2cc(CCOCc3ccccn3)c3ccccc32)cc1 | inactive
Cc1ccc(NC2=C(NCCO)C(=O)c3ccccc3C2=O)cc1 | inconclusive: 50.1 µM [inhibitor, partial curve]
CC1CN(c2ccc(NC(=O)c3ccco3)cc2C(=O)O)CC(C)O1 (stereo not drawn) | inconclusive: 126 µM [inhibitor, single point]
Fc1ccc(-c2c[nH]c(=S)n2Cc2ccccc2)cc1 | active: 50.1 µM
O=C1C2C(C(=O)N1/N=C/c1ccc([N+](=O)[O-])o1)C1C=CC2C12CC2 (stereo not drawn) | inactive
Cc1ccc(C(=O)N/N=C/c2cn(Cc3ccccc3)c3ccccc23)cn1 | inactive
COCCNC(=O)CSCc1nc(-c2ccc(SC)cc2)oc1C | inactive
COc1cc(CN2CC(C)OC(C)C2)cc(OC)c1 (stereo not drawn) | inconclusive: 1 µM [inhibitor, full curve, poor fit]
CC(Oc1ccc(F)cc1)C(=O)Nc1ccc(N2CCN(C)CC2)nc1 (stereo not drawn) | inactive
O=S(=O)(NCCS(=O)(=O)N1CCN(c2ccccc2)CC1)c1ccccc1 | inactive
CCc1ccc(S(=O)(=O)N2CCN(C(=O)Nc3ccccc3Br)CC2)cc1 | inactive

In another format: results already given
Structure (SMILES),Potency
O=c1[nH][nH]c(C(F)(F)F)c1C=Nc1ccccc1Cl,"inconclusive: 15.8 µM [inhibitor, partial curve, poor fit]"
CCc1ccc(NC(=S)NC2CCN(Cc3ccccc3)CC2)cc1,"inconclusive: 50.1 µM [inhibitor, single point]"
COc1cc([N+](=O)[O-])ccc1NC(=O)Oc1ccc(NC(C)=O)cc1,"inconclusive: 28.2 µM [inhibitor, partial curve]"
O=C(CSc1cccc2cccc(Cl)c12)NCc1ccco1,"inconclusive: 79.4 µM [inhibitor, partial curve, poor fit]"
